Data: PubChem BioAssay AID328 (DTP/NCI, 2004)
The list does not hold the whole screen: it is rich in T/C values a quarter to a half above the control, in often repeated tests (any T/C) and in doses without a T/C. Other doses and runs of a compound stand elsewhere. T/C gives the treated animals as a percentage of the vehicle group. Some doses have a count of surviving animals in place of a T/C: the source holds a T/C of zero for them, seemingly a mark for toxic or unscored doses. Some survivor counts are full or nearly so, which does not show that the dose was tolerated: survival well below the control is almost never listed, so the zero probably covers shortened survival too. Counts of survivors are from the toxicity check (mostly the fifth day) where no day follows; animals may have died later. Schedules are NCI's codes, taken here to give the interval after Q, in days (D) or hours (H), and the number of doses after X. Some entries hold several experiments; their values stand side by side, smallest first. Where survival is the endpoint, the PubChem record calls one and a half times the control and up active, and a quarter to a half above the control has no call in these data; cut-offs in other NCI protocols can differ. Some T/C values carry the count of animals alive at the toxicity check (mostly the fifth day); where none is given, no animal had died by that day. Positions of bridges follow the written chain, without caps; N, C: chain ends. Non-standard residues stand in square brackets, D forms with d. Residues, ends and D or L forms follow the SMILES beside them. Chains are numbered I, II in the order given. *: point of attachment. Quinoxaline2carbonyl = O=C(c1cnc2ccccc2n1)*; NMeV = CN[CH](C(=O)O)C(C)C; NMeC = CN[CH](CS)C(=O)O

Test system: BDF1 mice, P388 leukemia ip, median survival T/C
Assay: NCI In Vivo Anticancer Drug Screen. Data for tumor model P388 Leukemia (intraperitoneal) in B6D2F1 (BDF1) mice
Details: T/C endpoint: median survival time, higher T/C = longer survival
Summary of the method: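 In tumour-bearing mice, survival after compound treatment is set against the vehicle group and given as a quotient.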

[1] = dose: 100.0 mg/kg/injection, schedule: Q01DX009 (ip), vehicle: saline with Tween-80
[2] = dose: 200.0 mg/kg/injection, schedule: Q01DX009 (ip), vehicle: saline with Tween-80
[3] = dose: 400.0 mg/kg/injection, schedule: Q01DX009 (ip), vehicle: saline with Tween-80
[4] = dose: 25.0 mg/kg/injection, schedule: Q01DX009 (ip), vehicle: saline with Tween-80
[5] = dose: 50.0 mg/kg/injection, schedule: Q01DX009 (ip), vehicle: saline with Tween-80
[6] = dose: 100.0 mg/kg/injection, schedule: Q01DX009 (ip), vehicle: saline
[7] = dose: 100.0 mg/kg/injection, schedule: Q04DX003 (ip), vehicle: saline
[8] = dose: 200.0 mg/kg/injection, schedule: Q01DX009 (ip), vehicle: saline
[9] = dose: 200.0 mg/kg/injection, schedule: Q04DX003 (ip), vehicle: saline with Tween-80
[10] = dose: 200.0 mg/kg/injection, schedule: Q04DX003 (ip), vehicle: saline
[11] = dose: 400.0 mg/kg/injection, schedule: Q04DX003 (ip), vehicle: saline
[12] = dose: 37.5 mg/kg/injection, schedule: Q04DX003 (ip), vehicle: saline with Tween-80

CC(C)CCOC(=O)C(Br)c1ccccc1 (stereo not drawn)
T/C [1]: 138 and 145 % of control
T/C [2]: 145 % of control
survivor count [3]: 6 of 6

C1CCC2[N-]CC3CCCCC3[N-]CC3CCCCC3[N-]CC3CCCCC3[N-]CC2C1.[Cu] (stereo not drawn)
T/C (dose: 0.39 mg/kg/injection, schedule: Q01DX009 (ip), vehicle: saline): 125 % of control
T/C (dose: 0.78 mg/kg/injection, schedule: Q01DX009 (ip), vehicle: saline): 142 % of control
T/C (dose: 3.12 mg/kg/injection, schedule: Q01DX009 (ip), vehicle: saline): 144 % of control

NC(=S)N/N=C/c1ccc(OC(=O)Cc2ccccc2)cn1
T/C [4]: 140 % of control
T/C [5]: 142 % of control [5 of 6 alive]
T/C [1]: 142 % of control

CC1(C)COCN1COCCOCN1COCC1(C)C
T/C [5]: 127 % of control
T/C [1]: 139 % of control
survivor count [2]: 3 of 6

COc1cccc(CC2=NCCc3cc(OC)c(OC)cc32)c1
survivor count (dose: 25.0 mg/kg/injection, schedule: Q01DX009 (ip), vehicle: saline): 1 of 6
survivor count [6]: 1 of 6
survivor count [7]: 5 of 6
survivor count [8]: 0 of 6

O=C(CBr)CC(=O)Nc1ccccc1
survivor count [4]: 3 of 6
survivor count [5]: 2 of 6

C(=NCCc1ccccc1)c1ccccc1B1OB(c2ccccc2C=NCCc2ccccc2)OB(c2ccccc2C=NCCc2ccccc2)O1
survivor count (dose: 200.0 mg/kg/injection, schedule: Q04DX003 (ip), vehicle: Klucel (hydroxypropylcellulose) (HPC)): 6 of 6

NC(=O)C(O)C(Br)(Br)Br (stereo not drawn)
survivor count (dose: 400.0 mg/kg/injection, schedule: Q01DX009 (ip), vehicle: saline): 5 of 5

Nc1ccc2cc(Cl)ccc2c1
T/C [4]: 136 % of control
T/C [5]: 131 % of control

CCCCN(CCCC)CC(O)c1ccnc2cc3c(cc12)OCO3 (stereo not drawn)
survivor count (dose: 200.0 mg/kg/injection, schedule: Q01DX001 (ip), vehicle: saline with Tween-80): 1 of 6
survivor count (dose: 400.0 mg/kg/injection, schedule: Q01DX001 (ip), vehicle: saline with Tween-80): 0 of 6

[NH-]C(CC(N)=O)C(=O)O.[NH-]C(CC(N)=O)C(=O)O.[Ni+2] (stereo not drawn)
survivor count (dose: 25.0 mg/kg/injection, schedule: Q01DX009 (ip), vehicle: water): 5 of 6
survivor count (dose: 50.0 mg/kg/injection, schedule: Q01DX009 (ip), vehicle: water): 3 of 6

CC(=O)CC(C)=O.CC(=O)CC(C)=O.[Fe]
survivor count (dose: 35.0 mg/kg/injection, schedule: Q01DX009 (ip), vehicle: saline): 1 of 6
survivor count (dose: 55.0 mg/kg/injection, schedule: Q01DX009 (ip), vehicle: saline): 0 of 6
survivor count (dose: 55.0 mg/kg/injection, schedule: Q04DX003 (ip), vehicle: saline): 0 of 6
survivor count (dose: 80.0 mg/kg/injection, schedule: Q01DX009 (ip), vehicle: saline): 0 of 6
survivor count (dose: 80.0 mg/kg/injection, schedule: Q04DX003 (ip), vehicle: saline): 0 of 6

N=C1SCc2ccc3ccccc3c21
T/C [2]: 131 % of control [5 of 6 alive]
survivor count [3]: 2 of 6

C[N+]1=C2CCCCCC2=C(N)CC1
survivor count (dose: 6.25 mg/kg/injection, schedule: Q04DX003 (ip), vehicle: saline sonified): 6 of 6
survivor count (dose: 25.0 mg/kg/injection, schedule: Q04DX003 (ip), vehicle: saline sonified): 6 of 6

CCCCCCCCCCCCS(=O)(=O)O
T/C (dose: 12.5 mg/kg/injection, schedule: Q01DX009 (ip), vehicle: saline with Tween-80): 136 % of control
T/C [4]: 127 % of control
survivor count [5]: 3 of 6 and 6 of 6
survivor count [1]: 0 of 6
survivor count [2]: 0 of 6

COC(OC)c1nc(N)[nH]c(=O)c1Cc1ccc(C)c2ccccc12
survivor count [3]: 6 of 6

CC(=O)OCC(COC(C)=O)=C1N=C(c2ccccc2)OC1=O
T/C [9]: 127 % of control

O[C@@H]1CCCC[C@@H]1n1cnc2c(=S)nc[nH]c21
survivor count [3]: 6 of 6

CC/C(=C\c1ccc(Cl)cc1)[N+](=O)[O-]
survivor count (dose: 50.0 mg/kg/injection, schedule: Q04DX003 (ip), vehicle: saline): 6 of 6
survivor count [6]: 6 of 6
survivor count [10]: 5 of 6
survivor count [11]: 0 of 6

CC1NC(=O)C(NC(=O)c2cnc3ccccc3n2)COC(=O)C(C(C)C)N(C)C(=O)C2CSSCC(C(=O)N(C)C(C(C)C)C(=O)OCC(NC(=O)c3cnc4ccccc4n3)C(=O)NC(C)C(=O)N2C)N(C)C1=O (stereo not drawn) (I: Quinoxaline2carbonyl-SA[NMeC][NMeV] / II: Quinoxaline2carbonyl-SA[NMeC][NMeV]; ester I:1-II:C, I:C-II:1; disulfide I:3-II:3; configuration not given here)
T/C (dose: 6.0 micrograms/kg/injection, schedule: Q01DX009 (ip), vehicle: saline): 147 % of control

COc1cccc(N=C(N)N=C(N)N)c1
survivor count (dose: 200.0 mg/kg/injection, schedule: Q01DX001 (ip), vehicle: saline): 2 of 6

CCN(CC)CCCCCNc1cc(OC)cc2c(C)ccnc12
survivor count [8]: 0 of 6

O=c1[nH]c(Cl)nc2c(Cl)c(C(Cl)(Cl)Cl)nn12
survivor count [4]: 4 of 6
survivor count [5]: 6 of 6
survivor count [1]: 6 of 6
survivor count [2]: 4 of 6
survivor count [9]: 5 of 6

COC(=O)C12OCC34C(CC5C(C)=C(O)C(=O)CC5(C)C3C(O)C1O)OC(=O)C(OC(=O)/C=C(\C)C(C)(C)O)C24 (stereo not drawn)
T/C (dose: 0.05 mg/kg/injection, schedule: Q01DX009 (ip), vehicle: saline): 132 % of control
T/C (dose: 0.1 mg/kg/injection, schedule: Q01DX009 (ip), vehicle: saline): 133 and 140 % of control
T/C (dose: 0.2 mg/kg/injection, schedule: Q01DX009 (ip), vehicle: saline): 137 % of control
T/C (dose: 0.4 mg/kg/injection, schedule: Q01DX009 (ip), vehicle: saline): 145 % of control
T/C (dose: 15.0 micrograms/kg/injection, schedule: Q01DX009 (ip), vehicle: saline + alcohol): 133 % of control
T/C (dose: 30.0 micrograms/kg/injection, schedule: Q01DX009 (ip), vehicle: saline + alcohol): 133 % of control

Cn1cnc([N+](=O)[O-])c1Sc1ncnc2c1ncn2C1OC(CO)C(O)C1O (stereo not drawn)
survivor count (dose: 400.0 mg/kg/injection, schedule: Q01DX009 (ip), vehicle: Klucel (hydroxypropylcellulose) (HPC)): 5 of 6

CCC[CH2][Pb]([CH2]CCC)([O]C(C)=O)[O]C(C)=O
survivor count (dose: 25.0 mg/kg/injection, schedule: Q04DX003 (ip), vehicle: saline with Tween-80): 0 of 6
survivor count (dose: 50.0 mg/kg/injection, schedule: Q04DX003 (ip), vehicle: saline with Tween-80): 0 of 6
survivor count (dose: 100.0 mg/kg/injection, schedule: Q04DX003 (ip), vehicle: saline with Tween-80): 0 of 6

CCCCn1cnc2c(=S)nc(N)[nH]c21
T/C (dose: 75.0 mg/kg/injection, schedule: Q04DX003 (ip), vehicle: saline with Tween-80): 125 % of control

CC1CCC(C)N1P(=O)(N1CC1)N1CC1 (stereo not drawn)
T/C [12]: 131 % of control
survivor count [12]: 6 of 6
survivor count [7]: 2 of 6
survivor count [10]: 4 of 6
survivor count [11]: 0 of 6

Brc1csc2ncccc12
survivor count (dose: 400.0 mg/kg/injection, schedule: Q04DX003 (ip), vehicle: Klucel (hydroxypropylcellulose) (HPC)): 1 of 6

COc1cc([N+](=O)[O-])c(Cl)cc1NS(=O)(=O)c1ccccc1
T/C [1]: 145 % of control
